# Measurements: PubChem BioAssay AID504327 (National Center for Advancing Translational Sciences (NCATS), 2011)
# Protein sequences, listed by entry. Tags and fused reporters are not part of them.
# UniProt Q92830, whole entry, looked up: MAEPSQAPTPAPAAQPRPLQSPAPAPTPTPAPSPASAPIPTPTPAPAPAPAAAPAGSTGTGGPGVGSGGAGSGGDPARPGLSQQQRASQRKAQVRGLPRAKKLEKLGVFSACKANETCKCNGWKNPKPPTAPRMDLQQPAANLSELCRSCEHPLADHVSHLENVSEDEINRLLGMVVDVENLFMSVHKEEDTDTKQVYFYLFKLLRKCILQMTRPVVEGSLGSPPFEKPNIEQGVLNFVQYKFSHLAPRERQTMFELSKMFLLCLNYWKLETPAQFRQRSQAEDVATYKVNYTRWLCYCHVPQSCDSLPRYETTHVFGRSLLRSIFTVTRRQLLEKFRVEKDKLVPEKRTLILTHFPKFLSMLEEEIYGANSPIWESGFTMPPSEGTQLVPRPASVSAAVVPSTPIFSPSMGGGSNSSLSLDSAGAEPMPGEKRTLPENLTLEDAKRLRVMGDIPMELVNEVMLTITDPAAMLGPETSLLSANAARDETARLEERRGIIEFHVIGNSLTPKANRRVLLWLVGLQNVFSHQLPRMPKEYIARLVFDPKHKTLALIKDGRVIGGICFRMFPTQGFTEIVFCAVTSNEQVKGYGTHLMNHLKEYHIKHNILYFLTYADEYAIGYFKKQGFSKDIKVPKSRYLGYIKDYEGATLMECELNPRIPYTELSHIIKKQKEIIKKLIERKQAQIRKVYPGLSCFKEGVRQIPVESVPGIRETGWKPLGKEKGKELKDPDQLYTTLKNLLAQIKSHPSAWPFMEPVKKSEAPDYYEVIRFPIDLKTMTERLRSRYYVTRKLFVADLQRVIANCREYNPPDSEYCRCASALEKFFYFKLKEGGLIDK
# Among all 390,000 compounds or so, about 820 (0.21%) were called active. Inconclusive results, whose numbers are uncertain, are shown with a selection of clear calls. Calls come from the whole dose curve; as a rule, active = well fitted inhibition curve with a large enough effect; inconclusive = small, poorly fitted or top-dose-only effect, or another doubt; inactive = no such curve, though single readings can be large or run the other way. Potencies of inconclusive entries are doubtful fits and often do not repeat.
# Target: Histone acetyltransferase KAT2A (Homo sapiens) (UniProt Q92830)
# Experiment: qHTS Assay for Inhibitors of GCN5L2
# Conditions: GCN5L2 HAT assay, ThioGlo1 CoA-SH fluorescence; activity change, negative = inhibition: at 58.9 µM (top of the series) unless noted
# Procedure, shortened: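 Enzyme at 20nM final was mixed with library compounds for 15 min at room temperature. Peptide H3(1-25) at 75uM, acetyl-CoA at 70uM and ThioGlo1 at 50uM were then added. Plates were read immediately and after 20 min (Ex340nm/Em540nm).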
# % is set by controls: 0 for no effect and ±100 for the full control effect; potency is the fitted concentration of half-maximal effect.
Compound,Potency,"activity change, negative = inhibition"
N#Cc1c(-c2ccco2)nc(SCC(=O)Nc2ccc(S(N)(=O)=O)cc2)[nH]c1=O,"inconclusive: 39.8 µM [inhibitor, single point]",
Cc1noc(C)c1CSCc1ccc(Cl)cc1,"inconclusive: 35.5 µM [inhibitor, single point]",
CCCCOc1ccc(C2C(C(=O)c3ccc(C)o3)=C(O)C(=O)N2Cc2ccco2)cc1 (stereo not drawn),"inconclusive: 1 µM [inhibitor, full curve, poor fit]",
O=C(C[C@@H]1C/C=C/CCCC(=O)O[C@H](c2ccccc2)CNC1=O)N[C@H](CO)Cc1ccccc1,inactive,
COc1cccc(CN2CCN(C3CCN(c4ccccc4F)CC3)CC2CCO)c1 (stereo not drawn),"inconclusive: 39.8 µM [inhibitor, single point]",
CS(=O)(=O)Nc1ccc(N2CCCCC2)c(Cl)c1,"inconclusive: 39.8 µM [inhibitor, single point]",
CC1CCCCN1CCNC(=O)CCc1nnc2n(Cc3ccccc3)c(=O)c3ccccc3n12 (stereo not drawn),"inconclusive: 0.708 µM [inhibitor, single point]",
CCCN(CC(=O)Nc1ccccc1C)C(=O)Cc1coc2cc(C)ccc12,"inconclusive: 17.8 µM [inhibitor, partial curve]",
CCN(C[C@H]1N[C@@](Cc2ccccc2)(C(=O)OC)[C@H]2C(=O)N(Cc3ccccc3)C(=O)[C@@H]12)S(=O)(=O)c1ccc(OC)cc1,"inconclusive: 0.501 µM [inhibitor, single point]",
Cc1nc2ccccc2c(=O)n1/N=C/c1ccc(OC(F)F)cc1,"inconclusive: 39.8 µM [inhibitor, single point]",
Cc1cc(C)c(C#N)c(SCc2ccc(C(=O)O)cc2)n1,"inconclusive: 28.2 µM [inhibitor, single point]",
COc1ccc(-c2nc(C(=O)N3CCN(C)CC3)sc2-c2ccc(OC)cc2)cc1,"inconclusive: 39.8 µM [inhibitor, single point]",
Cc1cc(C)c2nc(-c3ccccn3)cc(C(=O)NCc3cc(C)n(C)n3)c2c1,inactive,
CC(C)(C)OC(=O)NCCCCCNC(=O)c1nc[nH]c1C(=O)N1CCc2ccccc2C1,inactive,
O=C(CNC(=O)c1ccc(Br)cc1)OCC(=O)c1ccccc1,"inconclusive: 1.12 µM [inhibitor, full curve, poor fit]",
COc1ccc(C(=O)N2CCC3(CCN(Cc4cc(C(F)(F)F)cc(C(F)(F)F)c4)CC3)CC2)cc1,inactive,
CC(C)CCNC(=O)C(NS(=O)(=O)c1ccc2c(c1)c(=O)n(C)c(=O)n2C)c1ccccc1 (stereo not drawn),"inconclusive: 39.8 µM [inhibitor, single point]",
CCc1ccc(OCC(=O)Nc2cc(-c3ccc(C)cc3)no2)cc1,inactive,
Cc1cccc(N(Cc2ccccc2)C(=O)c2ccccc2S(C)(=O)=O)c1,"inconclusive: 5.01 µM [inhibitor, full curve]",
COc1cc(OC)cc(C(=O)NNC(=O)C2CCCC2)c1,"inconclusive: 0.631 µM [inhibitor, single point]",
CNc1nc(C23CC4CC(CC(C4)C2)C3)cs1,inactive,
CC(=O)Nc1ccc(S(=O)(=O)N(C)CC(=O)NCCC2=CCCCC2)cc1,"inconclusive: 39.8 µM [inhibitor, single point]",
Cc1cc(F)ccc1S(=O)(=O)Nc1ncnc2sccc12,inactive,

Compound,Potency,"activity change, negative = inhibition"
O=C(Nc1nnc(-c2ccccc2Cl)o1)c1ccco1,"inconclusive: 39.8 µM [inhibitor, single point]",
CCC(=O)Nc1nc2nc(C)cc(=O)n2[nH]1,inactive,
O=C(Nc1cccc([N+](=O)[O-])c1)c1ccncc1,inactive,
O=Cc1cccn1-c1cccc([N+](=O)[O-])c1,"inconclusive: 39.8 µM [inhibitor, partial curve]",
COc1cccc(NC(=O)CSc2ccc(-c3sc(C)nc3C)nn2)c1,inactive,
CC(=O)Nc1cccc(-n2nnc(SCC(=O)N(C)c3ccccc3)n2)c1,"inconclusive: 39.8 µM [inhibitor, single point]",
CCCCc1ccc(C2C(C#N)=C(N)SC(N)=C2C#N)s1,"inconclusive: 39.8 µM [inhibitor, single point]",
Clc1ccc(CSc2nccn2Cc2ccccc2)cc1,inactive,
COc1ccc(C(=O)N2C(=S)NC(=O)/C2=C\c2ccc(C)cc2)cc1,"inconclusive: 22.4 µM [inhibitor, single point]",
COc1c(O)cc2c(c1O)[C@@H]1O[C@@H](CO)[C@@H](O)[C@@H](O)[C@@H]1OC2=O,inactive,
O=C(NCc1ccncc1)C(=O)NCC1OCCN1S(=O)(=O)c1ccc(Br)cc1 (stereo not drawn),"inconclusive: 0.141 µM [inhibitor, full curve, poor fit]",
O=C(/C=C/c1cccc(C(F)(F)F)c1)NNC(=O)c1ccncc1,inactive,
Cc1cc(=O)n2ccccc2c1C#N,"inconclusive: 39.8 µM [inhibitor, single point]",
CCOC(=O)CSc1nc2ccc(N3CCOCC3)cc2c(=O)n1Cc1ccc2c(c1)OCO2,"inconclusive: 0.631 µM [inhibitor, full curve, poor fit]",
COc1cccc(/C(O)=C2/C(=O)C(=O)N(c3cc(C)on3)C2c2cccs2)c1 (stereo not drawn),"inconclusive: 0.631 µM [inhibitor, partial curve, poor fit]",
COc1ccc(NC(=O)CSc2nc3nc(C)cc(C)c3c(=O)[nH]2)cc1,"inconclusive: 35.5 µM [inhibitor, single point]",
O=c1c(O)c(-c2cc(O)c(O)c(O)c2)oc2cc(O)ccc12,"inconclusive: 39.8 µM [inhibitor, single point]",
O=S(=O)(NCc1ccco1)c1ccc(S(=O)(=O)N2CCCC2)cc1,"inconclusive: 31.6 µM [inhibitor, single point]",
N#Cc1c(-c2cccs2)nc(SCc2ccc(Cl)cc2)[nH]c1=O,active: 25.1 µM,
COc1cccc(CN(C)C(=O)c2ccc(NS(=O)(=O)c3ccc4[nH]c(=O)[nH]c4c3)cc2)c1OC,,inconclusive: -31.1% [inhibitor]
CCOC(=O)c1ccc(N=C2SC(C(=O)Nc3ccc(C(=O)O)cc3)CC(=O)N2Cc2cccs2)cc1 (stereo not drawn),"inconclusive: 35.5 µM [inhibitor, single point]",
COc1cccc(/C=C2\SC(=O)N(CCC(=O)N3CCCCC3CCO)C2=O)c1 (stereo not drawn),"inconclusive: 3.16 µM [inhibitor, full curve]",
CCOC(=O)N1CCN(CC(=O)Nc2c(C(=O)OC)[nH]c3ccccc23)CC1,inactive,

Compound,Potency,"activity change, negative = inhibition"
CC(=O)O[C@]1(C(C)=O)CC[C@H]2[C@@H]3C=C(C)C4=CC(=O)CC[C@@H]4[C@H]3CC[C@@]21C,"inconclusive: 39.8 µM [inhibitor, single point]",
O=C(NCCCN1CCCC1=O)C1CCN(S(=O)(=O)c2c(Cl)cccc2Cl)CC1,"inconclusive: 7.94 µM [inhibitor, single point]",
CNS(=O)(=O)c1cccc(C(=O)OC2CCOC2=O)c1 (stereo not drawn),inactive,
C=CCn1c(SCC(=O)c2ccc(OC)cc2)nnc1C(C)NC(=O)c1cccs1 (stereo not drawn),"inconclusive: 3.16 µM [inhibitor, full curve, poor fit]",
O=C(Nc1ccc(N2CCCCC2)cc1)c1ccc([N+](=O)[O-])o1,"inconclusive: 25.1 µM [inhibitor, single point]",
CCn1c(SCC(=O)c2ccc3ccccc3c2)nnc1-c1cccs1,"inconclusive: 39.8 µM [inhibitor, single point]",
COc1ccc(N(C)C(=O)c2cc3c(s2)-c2ccccc2OC3)c(OC)c1,"inconclusive: 0.891 µM [inhibitor, single point]",
Cc1cc(O)c(CN2CCN(c3ccc(F)cc3)CC2)c2oc(=O)cc(C)c12,"inconclusive: 14.1 µM [inhibitor, partial curve]",
CCOC(=O)C1CCN(C(c2cccnc2)c2c(NC(=O)c3ccco3)sc(C)c2C)CC1 (stereo not drawn),"inconclusive: 3.98 µM [inhibitor, full curve]",
CC(C)(C)c1nn(-c2ccccc2)c2[nH]c(=O)c(CNc3ccc4c(c3)OCCO4)cc12,active: 35.5 µM,
O=C(CN1CCc2cc3c(cc2C1)OCCCO3)Nc1cccc(Br)c1,inactive,
Cc1ccc(S(=O)(=O)NNC(=O)c2ccccc2O)cc1,inactive,
COCCn1c(CNC(=O)c2cc(OC)c(OC)c(OC)c2)nc2cccnc21,inactive,
COc1ccc(-c2cc3c(=O)n(CC(=O)NCc4ccc(F)cc4)ncn3n2)cc1,"inconclusive: 0.891 µM [inhibitor, single point]",
CCC(=O)c1ccc(N2CCN(C(=O)COc3ccc(F)cc3)CC2)c(F)c1,"inconclusive: 0.708 µM [inhibitor, single point]",
CCc1nnc(NC(=O)CSc2nnc3c4ccccc4n(C)c3n2)s1,"inconclusive: 8.91 µM [inhibitor, single point]",
O=C(N/N=C/C=C\c1ccco1)c1cccs1,"inconclusive: 28.2 µM [inhibitor, single point]",
C=CCn1c(SCC(=O)Nc2cc(Cl)ccc2C(=O)O)nc2sc(C)c(C)c2c1=O,active: 31.6 µM,
COc1ccc2nc(N/C(N)=N/C(=S)Nc3c(C)cccc3C)nc(C)c2c1,inactive,
COc1ccccc1Oc1nc2c(c(=O)n(Cc3ccccc3F)c(=O)n2C)n1C,"inconclusive: 28.2 µM [inhibitor, single point]",
Cc1cccc(NC(=O)C2CC2c2ccccc2)c1C (stereo not drawn),"inconclusive: 39.8 µM [inhibitor, single point]",
COc1ccc(OC)c(C(c2nnnn2Cc2ccccc2)N2CCN(C3CCCCC3)CC2)c1 (stereo not drawn),inactive,
